The values below come from article PMC12024163, “Competitive Ligand-Induced Recruitment of Coactivators to Specific PPARα/δ/γ Ligand-Binding Domains Revealed by Dual-Emission FRET and X-Ray Diffraction of Cocrystals” (Antioxidants, 2025).

Chains of the proteins cited; added tags and fusions are not shown. Residues count along the entry.
UniProt P37231, residues 231-505: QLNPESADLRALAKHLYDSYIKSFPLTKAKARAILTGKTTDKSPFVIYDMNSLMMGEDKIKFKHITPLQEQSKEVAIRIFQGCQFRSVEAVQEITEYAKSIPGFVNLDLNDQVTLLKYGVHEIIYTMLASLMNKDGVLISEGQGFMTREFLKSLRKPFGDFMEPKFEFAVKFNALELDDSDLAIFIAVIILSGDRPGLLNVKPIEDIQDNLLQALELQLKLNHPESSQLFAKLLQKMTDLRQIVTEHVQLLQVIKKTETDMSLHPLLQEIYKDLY

No constants are given. Whether binding was seen depends on the method and setting.

The target in the experiment is Human PPARγ-LBD (amino acids 203–477 in isoform 1), amino-terminal His-tagged (human) (UniProt P37231). The experiment in a line: FRET or BRET; single-emission TR-FRET (LANCE Ultra); His-tagged LBD (9.5 µL of 400 nM) with Tb cryptate anti-6×His antibody, biotin peptide (5 µL of 1 µM) with ULight-Streptavidin or FITC-Ahx peptide; buffer A (20 mM HEPES pH 7.4, 150 mM NaCl, 1 mM EDTA, 1 mM DTT, 0.005% Tween 20, 0.1% fatty acid-free BSA); room temperature, 2 h; without agonist (vehicle 1% DMSO); both purified. On the technique in general: In BRET a luciferase serves as donor, and the signal depends on an acceptor being close.

With PVSSMAGNTKNHPMLMNLLKDNPAQ (biotin on the N-terminus (printed biotin-PVSSM...)) [TRAP220 coactivator peptide, biotin-labeled (AAs 631–655)], the binding entry was “no binding (condition: without pioglitazone)”.
